# Experimental data from PubChem BioAssay AID445 (National Center for Advancing Translational Sciences (NCATS), 2006).
# This is one part of the list. Further columns of the screen follow, without active or inactive calls. The list favours compounds with an active or inconclusive main result. Potencies come from curve fits of mixed quality, noted in brackets.
# Assay: IkB Signaling
# Details: ABC-DLBCL IkBa-CBG/CBR dual luciferase ratio (green luciferase fused to IkBa over red control in OCI-Ly3 lymphoma cells), 4 h
# In short: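 In this assay, an IκBα–CBG68 fusion accumulates when IKK-driven degradation is blocked; native CBR normalizes for cell number. OCI-Ly3 cells were treated 4 h with compound and doxycycline, then green and red light read after Chroma-Glo addition.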
# [1] = measured here: control luc red channel unless noted
# [2] = measured here: IkB-luc green channel
# [3] = measured here: control luc red channel
compound,measurement,setting,value
Fc1ccc([C@H]2CCNC[C@H]2COc2ccc3c(c2)OCO3)cc1,AC50,[1],"39.8 µM [falling, partial curve]"
Cc1ccc(C(CC(=O)Nc2cc(C)cc(C)c2)N2Cc3ccccc3C2=O)cc1 (centres undefined),AC50,[1],"25.1 µM [falling, single point]"
Cc1cccc(NC(=O)CSc2nnc(C)c(=O)[nH]2)c1,AC50,[1],"10 µM [rising, partial curve, poor fit]"
N=c1c2c(-c3ccccc3)c(-c3ccccc3)n(Cc3ccco3)c2ncn1Cc1ccco1,AC50,[1],"3.98 µM [falling, full curve]"
CCS(=O)(=O)NCC(c1ccco1)N1CCN(c2ccc(OC)cc2)CC1 (centres undefined),AC50,[2],"3.98 µM [rising, partial curve]"
same,AC50,[3],"3.98 µM [rising, partial curve]"
Cc1cc(/C=C\c2ccc3cc(N(C)C)ccc3[n+]2C)c(C)n1-c1ccccc1,AC50,[1],"12.6 µM [falling, partial curve]"
O=C(c1ccccc1)c1nnc(-c2ccncc2)o1,AC50,[1],"15.8 µM [falling, partial curve]"
COc1ccc(S(=O)(=O)N(C)Cc2nc(-c3cccc(C)c3)no2)cc1,AC50,[1],"20 µM [falling, single point]"
CC(C)Cc1cc(C(=O)Nc2cc(Br)ccc2O)no1,AC50,[1],"39.8 µM [rising, single point] [measured here: IkB-luc green channel]"
O=C(CSc1nc2ccsc2c(=O)n1Cc1ccccc1F)NCc1ccccc1,AC50,[1],"2 µM [rising, partial curve]"
CS(=O)(=O)c1nc(-c2cccs2)cc(C(F)(F)F)n1,AC50,[2],"6.31 µM [rising, single point]"
same,AC50,[3],"10 µM [falling, partial curve]"
CCc1ccc(NC(=O)N(Cc2ccc(C)cc2)Cc2cccn2-c2nnc(N3CCCC3=O)s2)cc1,AC50,[1],"5.01 µM [falling, partial curve]"
COC(=O)C1=C(C)N(C)C(C)=C(C(=O)OC)C1c1ccc(F)c(Br)c1,AC50,[1],"15.8 µM [falling, single point]"
CCc1ccc(CNC(=O)CCN2C(=O)COc3ccccc32)cc1,AC50,[1],"39.8 µM [falling, single point]"
CCOC(=O)c1cc(-c2ccccc2)n(CCCC(=O)Nc2cccc(Cl)c2C)c1C,AC50,[1],"3.16 µM [rising, partial curve]"
CSc1ccc(CCNC(=O)C(C)n2c(C)c3cnn(-c4ccccc4)c(=O)c3c2C)cc1 (centres undefined),AC50,[1],"15.8 µM [falling, partial curve]"
COc1cc(OC)cc(C(=O)Nc2c(C(=O)Nc3ccc(F)cc3)oc3ccccc23)c1,AC50,[1],"2 µM [falling, full curve]"
Cc1ccc2c(CSc3nncs3)cc(=O)oc2c1,AC50,[1],"12.6 µM [falling, partial curve]"
O=C(Cn1c(=O)n(Cc2ccccc2)c(=O)c2oc3ccccc3c21)Nc1ccc(Cl)cc1,AC50,[1],"3.98 µM [falling, full curve]"
CC(=O)Nc1cc(C(=O)NCc2ccc(F)cc2Cl)ccc1Sc1ccc(Cl)cc1,AC50,[1],"25.1 µM [falling, partial curve]"
CCOC(=O)c1ccccc1N1C(=O)CSC1=S,AC50,[1],"39.8 µM [rising, single point] [measured here: IkB-luc green channel]"
Cc1ccc(CCNc2nc3c(S(=O)(=O)c4ccc(C)cc4)nnn3c3ccsc23)cc1,AC50,[1],"5.01 µM [falling, partial curve]"
Cc1ccc(-n2ncc3c(NCCCc4ccccc4)ncnc32)cc1C,AC50,[1],"3.98 µM [falling, full curve]"
Cc1ccc(-c2c3c(=O)n(C)c(=O)n(C)c3c3c(C(F)(F)F)nc4ccccc4n23)cc1,AC50,[1],"20 µM [falling, single point]"
CCOC(=O)c1[nH]c(C)c(CCC(=O)Nc2ccc(N(CC)CC)cc2C)c1C,AC50,[1],"1 µM [falling, partial curve, poor fit]"
CCOc1ccc(Cl)cc1S(=O)(=O)n1nnc2ccccc21,AC50,[1],"10 µM [falling, partial curve]"
COc1ccc2oc(=N)c(C(=O)Nc3ccccc3)cc2c1,AC50,[1],"20 µM [falling, partial curve]"
CCOc1ccc(N(C(=O)c2ccc(C)cc2)S(=O)(=O)c2ccc3c(c2)n(C)c(=O)n3C)cc1,AC50,[1],"0.251 µM [rising, full curve, poor fit]"
COc1cccc(NC(=O)c2ccc(S(=O)(=O)N3CCCCC3)cc2)c1,AC50,[1],"7.94 µM [falling, partial curve]"
Cc1ccc2cccc(NC(=O)c3ccc(-c4cc(Cl)ccc4Cl)o3)c2n1,AC50,[1],"6.31 µM [falling, partial curve, poor fit]"
Cc1ccc(C)n1-c1nnc(N2CCCC(C(=O)NCc3ccc(F)cc3)C2)s1 (centres undefined),AC50,[1],"10 µM [falling, partial curve]"
O=C(NCc1ccc(Cl)cc1)c1cc2ccccc2o1,AC50,[1],"25.1 µM [falling, partial curve, poor fit]"
Cc1ccc(Cl)cc1N1CCN(C(=O)Cn2cnc3nc4c(cc3c2=O)CCCC4)CC1,AC50,[1],"25.1 µM [falling, partial curve]"
O=C(O)CCc1ccc(-c2cccs2)n1NC(=O)c1ccc(O)cc1,AC50,[1],"6.31 µM [falling, partial curve]"
O=C(NCc1cccc(Br)c1)c1cccn1-c1nnc(N2CCCCC2)s1,AC50,[1],"31.6 µM [falling, single point]"
O=C(CC(c1ccccc1)c1cc(Br)ccc1O)NCC1(c2ccccc2)CCCC1 (centres undefined),AC50,[1],"3.16 µM [falling, full curve]"
COc1ccc(CNC(=O)CCCc2cn(C)c3ccccc23)c(OC)c1,AC50,[1],"25.1 µM [falling, partial curve, poor fit]"
O=C(CCN1C(=O)COc2ccccc21)NCCN1CCN(c2cccc(Cl)c2)CC1,AC50,[1],"39.8 µM [falling, partial curve]"
CCCc1[nH]nc2c1C(C1CCCCC1)C(C#N)=C(N)O2 (centres undefined),AC50,[1],"15.8 µM [falling, partial curve]"
O=C(CSc1nnnn1C1CCCC1)Nc1cccc(NC(=O)c2ccco2)c1,AC50,[1],"6.31 µM [falling, partial curve]"
COc1ccc(O)c(-c2cc(-c3cccc(Br)c3)n[nH]2)c1,AC50,[2],"39.8 µM [falling, single point]"
same,AC50,[3],"25.1 µM [falling, single point]"
O=C(CCS(=O)(=O)c1ccc2c(c1)NC(=O)CO2)Nc1cccc(C(F)(F)F)c1,AC50,[1],"0.01 µM [falling, full curve, poor fit]"
COc1cc(C2c3c(-c4cc(Cl)c(C)cc4O)n[nH]c3C(=O)N2Cc2cccnc2)ccc1O (centres undefined),AC50,[1],"10 µM [falling, partial curve]"
COc1ccc(NC(=O)Cn2nnc(C(=O)NCc3ccccc3Cl)c2N)cc1Cl,AC50,[1],"0.0316 µM [falling, full curve, poor fit]"
O=C(c1ccc2c(Cl)c3c(nc2c1)CCCC3)N1CCN(c2cccc(Cl)c2)CC1,AC50,[1],"6.31 µM [falling, partial curve]"
O=c1nc2s/c(=C\c3ccco3)c(=O)n2nc1Cc1ccccc1,AC50,[1],"3.98 µM [falling, full curve]"
Cc1ccc(-c2c(C(=O)NCCc3ccc(Cl)cc3)oc(=O)c3ccccc23)cc1,AC50,[1],"3.98 µM [falling, full curve]"
Cc1cccc(N2C(=O)CCSC23C(=O)N(Cc2ccc(F)cc2)c2ccccc23)c1 (centres undefined),AC50,[1],"20 µM [falling, single point]"
COCCc1nn2c(=O)cc(COC(=O)c3ccc(C(C)(C)C)cc3)nc2s1,AC50,[1],"31.6 µM [falling, single point]"
COc1ccc(CNc2ncnc3c2c(-c2ccccc2)cn3-c2ccccc2)cc1,AC50,[1],"5.01 µM [rising, single point]"
Fc1cccc(Cl)c1Cn1nnc2c(-n3ccnc3)ncnc21,AC50,[1],"25.1 µM [falling, partial curve]"
Cc1ccc(-c2nc(SCc3ccc(Br)cc3)n3[nH]c(=O)cc3n2)cc1,AC50,[1],"25.1 µM [rising, single point]"
CN1CC(=O)N(CC(=O)Nc2ccc(Cl)c(C(F)(F)F)c2)c2ccccc2C1=O,AC50,[1],"0.0251 µM [falling, full curve, poor fit]"
O=C1c2ccc(Oc3ccc4c(c3)C(=O)N(CCCCO)C4=O)cc2C(=O)N1CCCCO,AC50,[1],"39.8 µM [falling, single point]"
CCOC(=O)c1ccccc1NC(=O)Cn1c(=O)n(Cc2ccccc2)c(=O)c2c(C)c(C)sc21,AC50,[1],"0.794 µM [rising, full curve, poor fit]"
O=C1C(c2[nH]c3ccccc3c2O)=Nc2ccccc21,AC50,[1],"50.1 µM [rising, partial curve, poor fit] [measured here: IkB-luc green channel]"
CCC(=O)Oc1ccc(-c2nc3ccccc3c(=O)o2)cc1,AC50,[1],"15.8 µM [falling, partial curve]"
CCN(c1ccc(Cl)cc1)S(=O)(=O)c1nnc(NC(=O)C(C)C)s1,AC50,[1],"10 µM [falling, partial curve]"
Cc1ccc(-n2ncc(C(=O)N3CCN(Cc4ccccc4)CC3)c2C2CCN(C(=O)OC(C)(C)C)CC2)c(C)c1,AC50,[1],"31.6 µM [falling, partial curve]"
COc1cc(OC)cc(C(=O)Nc2cccc(N3CCCC3)c2)c1,AC50,[1],"12.6 µM [falling, partial curve]"
CC(C)(C)OC(=O)N1CCC(c2c(C(=O)NCc3ccco3)cnn2-c2ccc(F)cc2)CC1,AC50,[1],"12.6 µM [falling, partial curve]"

# Some of the entries above, set out differently.
compound | measurement | setting | value
Cc1ccc2cccc(NC(=O)c3ccc(-c4cc(Cl)ccc4Cl)o3)c2n1 | AC50 | [1] | 6.31 µM [falling, partial curve, poor fit]
Cc1ccc(C)n1-c1nnc(N2CCCC(C(=O)NCc3ccc(F)cc3)C2)s1 (centres undefined) | AC50 | [1] | 10 µM [falling, partial curve]

# A run of entries from the list above, as a working copy:
compound,measurement,setting,value
O=c1nc2s/c(=C\c3ccco3)c(=O)n2nc1Cc1ccccc1,AC50,[1],"3.98 µM [falling, full curve]"
Cc1ccc(-c2c(C(=O)NCCc3ccc(Cl)cc3)oc(=O)c3ccccc23)cc1,AC50,[1],"3.98 µM [falling, full curve]"
